Data published in patent US20240108662A1, “ENGINEERED CELLS FUNCTIONALIZED WITH IMMUNE CHECKPOINT MOLECULES AND USES THEREOF” (The University of North Carolina at Chapel Hill, priority 2020, published 2024).

B1: Q9DCA5 (protein, UniProt Q9DCA5 1-353, looked up)
chain: MAATKRKRRGGLEVQAKKPKRSSKDAGQPAKQADVAKEAEEENRDRIPGPVCKGKWKNKERILIFSSRGINFRTRHLMQDLRMLMPHSKADTKMDRKDKLFVINEVCEMKNCNKCIYFEAKKKQDLYMWLSNSPHGPSAKFLVQNIHTLAELKMTGNCLKGSRPLLSFDPAFDDLPHYALLKEFLIQIFSTPRYHPKSQPFVDHVFTFTILDNRIWFRNFQIIEEDAALVEIGPRFVLNLIKIFQGSFGGPTLYENPHYQSPNMHRRVIRSITAAKYRERQQVKDVQKLRKKEPKTILPHDPTADVFVIPAEEKPVEIQWVKPEPKVDLKARKRRIYKRHRKLQQKMSRGSAK
modifications: full-length
B2: Q8BGS7 (protein, UniProt Q8BGS7 1-416, looked up)
chain: MSGHRSTRKRCGDSHPESPVGFGHMSTTGCVLNKLFQLPTPPLSRHQLKRLEEHRYQSAGRSLLEPLMQGYWEWLVGRVPSWIAPNLITIIGLSINICTTILLVFYCPTATEQAPLWAYIACACGLFIYQSLDAIDGKQARRTNSSSPLGELFDHGCDSLSTVFVVLGTCIAVQLGTNPDWMFFCCFAGTFMFYCAHWQTYVSGTLRFGIIDVTEVQIFIIIMHLLAVIGGPPFWQSMIPVLNIQMKLLPALCTVAGTIFSCTNYFRVIFTGGVGKNGSTIAGTSVLSPFLHIGSVITLAVMIYKKSAVQLFEKHPCLYILTFGFVSAKITNKLVVAHMTKSEMHLHDTAFIGPALLFLDQYFNSFIDEYIVLWIALIFSFFDLIRYCVSVCNQIASHLHIHVFRIKASTAHSNHH
modifications: full-length
B3: Q3UGP8 (protein, UniProt Q3UGP8 1-474, looked up)
chain: MAQLEGYYFSAALSCTFLVSCLLFSAFSRALREPYMDEIFHLPQAQRYCEGRFSLSQWDPMITTLPGLYLVSVGVVKPASWLLGWSEHVICSIGVLRFVNLLFSVGNFYLLYLLFRKVQPRNKASSSIQRILSTLTLAVFPTLYFFNFLYYTEAGSVFFTLFAYLMCLYGNHRTSALLGFCGFMFRQTNIIWAAFCAGHLIAQKCSEAWKIELQKKKEERLAPTKGPLSELRRVLQFLLVYAMSLKNLRMLFLLTWPYVLLLLAFFAFVVVNGGIVVGDRSSHEACLHFPQLFYFFSFTAFFSFPHLLSLTKVKTFLSLVWKRRVQFSVVTLVSILLVWKFTYVHKYLLADNRHYTFYVWKRVFQRHEVVKYLLVPAYIFAGWAIADSLKAKSIFWNLMFFVCLVASTVPQKLLEFRYFILPYIIYRLNIPLPPISRLVCELGCYTVVNFVTFYIFLNKTFQWPNSQDIQRFMW
modifications: full-length
B4: Q9Z2Z6 (protein, UniProt Q9Z2Z6 1-301, looked up)
chain: MADEPKPISPFKNLLAGGFGGMCLVFVGHPLDTVKVRLQTQPPSLSGQPPMYSGTLDCFRKTLMREGITGLYRGMAAPIIGVTPMFAVCFFGFGLGKKLQQKSPEDELSYPQLFTAGMLSGVFTTGIMTPGERIKCLLQIQASSGENKYSGTLDCAKKLYQEFGIRGFYKGTVLTLMRDVPASGMYFMTYEWLKNLFTPEGKSVSDLSVPRILVAGGFAGIFNWAVAIPPDVLKSRFQTAPPGKYPNGFRDVLRELIREEGVTSLYKGFNAVMIRAFPANAACFLGFEIAMKFLNWIAPNL
modifications: full-length
B5: Q9WVH9 (protein, UniProt Q9WVH9 1-448, looked up)
chain: MPGLKRILTVTILALWLPHPGNAQQQCTNGFDLDRQSGQCLDIDECRTIPEACRGDMMCVNQNGGYLCIPRTNPVYRGPYSNPYSTSYSGPYPAAAPPVPASNYPTISRPLVCRFGYQMDEGNQCVDVDECATDSHQCNPTQICINTEGGYTCSCTDGYWLLEGQCLDIDECRYGYCQQLCANVPGSYSCTCNPGFTLNDDGRSCQDVNECETENPCVQTCVNTYGSFICRCDPGYELEEDGIHCSDMDECSFSEFLCQHECVNQPGSYFCSCPPGYVLLDDNRSCQDINECEHRNHTCTSLQTCYNLQGGFKCIDPISCEEPYLLIGENRCMCPAEHTSCRDQPFTILYRDMDVVSGRSVPADIFQMQATTRYPGAYYIFQIKSGNEGREFYMRQTGPISATLVMTRPIKGPRDIQLDLEMITVNTVINFRGSSVIRLRIYVSQYPF
modifications: full-length
B6: Q9D8Y1 (protein, UniProt Q9D8Y1 1-196, looked up)
chain: MESHKPSTSKDDLILNIISRKIKQLPESDRNLLEYGSAYIGLNAAFGGLIANSLFRRILNVTQARLASSLPMAVIPFLTANLSYQSLVSLPLSTGDLNCETCTTTRGALVGLVMGGLYPILLAIPVNGGLAARYESSPLPQRGNIFNYWITVSKPVFRKMLFPTLLQTVFASYLGSRQYKLLIKALQLPEPDLEIH
modifications: full-length
B7: Q8BK08 (protein, UniProt Q8BK08 1-190, looked up)
chain: MAAWGRRRLGPGGGGSRERVSLSATDCYIVHEIYSGENAQDQFEYELEQALEAQYKYIVIEPTRIGDETARWITVGNCLHKTAVLAGTACLFTPLALPLDYSHYISLPAGVLSLACCTLYGISWQFDPCCKYQVEYDAYKLSRLPLHTLTSSTPVVLVRKDDLHRKRLHNTIALAALVYCVKKVYELYAV
modifications: full-length
B8: Q8R570 (protein, UniProt Q8R570 1-413, looked up)
chain: MSSDMRVHSWSCSYYLDLEKQWVSGKLTLTPHSLKFIVEKTEEVLVGLPLSSIIEIRKESSLFIFGAITVLEKGQTKHWFSSLQPSRNVVFNVIEHFWRELLLSQPGTAANIPSHVTRGQELIGLMANSQKRMEDTAKDLQQQSEQLDSVLKGLEKMESDLDVADRLLTELETPSWWPFGSKFWKMPAEENLKEGVSSTCEPFGKEGVVITVPAIISERAESHSKLGKLTVLVSALEIYDSCSLLLHRFEKEDVDDIKVHSPYEVSIRQRFIGKPDVAYQLISAKMPEVIPILEVQFSSKIELLEDALVLRNKVFASSAERHAASRPKGCTPHRELPTGGQEGEQLQLQKNLPLFSEGEAQELTQILSKMKGLALDTEAELERQDAALDGITVAVDRATLNVDKQNRRMRKLM
modifications: full-length
B9: Q8BKS9 (protein, UniProt Q8BKS9 1-647, looked up)
chain: MEVKGKKKFTGKSPQTSQGKNKFHKNSESSSSKTFPRKAVKEGGPKVTSKNFEKGATKPGKKGVKQFKNKPQGGKGPKDKFQKANKFSKKRKFQPDGESDESGAKKPKWDDFKKKKKELKQSRQLSDKTNYDIVVRAKHIWESLRRKDCDKEKRVKLMSDLQKLIQGKIKTIAFAHDSTRVIQCFIQYGNEEQRKQAFQELQGDLVELSKAKYSRNIVKKFLMYGSKPQVAEIIRSFKGHVRKMLRHSEASAIVEYAYNDKAILEQRNMLTEELYGNTFQLYKSADHPTLDKVLELQPAKLELIMDEMKQILTPMAQKEAVIKHSLVHKVFLDFFTYAPPKPRSELIEAIREAVVYLAHTHDGARVAMHCLWHGTPKDRKVIVKTMKTYVEKVANGQYSHLVLLAAFDCIDDTKLVKQIIISEIISSLPSIVNDKYGRKVLLYLMSPRDPAHTVPELIELLQKGDGNAHSKKDTAIRRRELLESISPALLSYLQGHTQEVVLDKSACVLVSDMLGSATGDVQPAMDAIASLAAAELHPGGKDGELHVAEHPAGHLVLKWLLEQDKKMKESGKEGCFAKTLVERVGMKNLKSWASINRGAIILSSLLQSCDQEVVNKVKGGLKPLIPTLEKNKSSSRGIQTLLEKLTA
modifications: full-length
B10: Q9JKN1 (protein, UniProt Q9JKN1 1-378, looked up)
chain: MLPLSIKDDEYKPPKFNLFGKISGWFRSILSDKTSRNLFFFLCLNLSFAFVELLYGIWSNCLGLISDSFHMFFDSTAILAGLAASVISKWRDNDAFSYGYVRAEVLAGFVNGLFLIFTAFFIFSEGVERALAPPDVHHERLLLVSILGFVVNLVGIFVFNHGGHGHSHGSGHGHSHSLFNGALDHSHGHEDHCHSHEAKHGAAHSHDHDHAHGHGHLHSHDGPSFKATAGPSRQILQGVFLHILADTLGSIGVIASAIMMQNFGLMIADPICSILIAILIVVSVIPLLRESVGILMQRTPPSLENTLPQCYQRVQQLQGVYNLQEQHFWTLCSDVYVGTLKLVVAPDADARWILSQTHNIFTQAGVRQLYVQIDFAAM
modifications: full-length
B11: P35821 (protein, UniProt P35821 1-432, looked up)
chain: MEMEKEFEEIDKAGNWAAIYQDIRHEASDFPCKVAKLPKNKNRNRYRDVSPFDHSRIKLHQEDNDYINASLIKMEEAQRSYILTQGPLPNTCGHFWEMVWEQKSRGVVMLNRIMEKGSLKCAQYWPQQEEKEMVFDDTGLKLTLISEDVKSYYTVRQLELENLTTKETREILHFHYTTWPDFGVPESPASFLNFLFKVRESGSLSLEHGPIVVHCSAGIGRSGTFCLADTCLLLMDKRKDPSSVDIKKVLLEMRRFRMGLIQTADQLRFSYLAVIEGAKFIMGDSSVQDQWKELSREDLDLPPEHVPPPPRPPKRTLEPHNGKCKELFSSHQWVSEETCGDEDSLAREEGRAQSSAMHSVSSMSPDTEVRRRMVGGGLQSAQASVPTEEELSSTEEEHKAHWPSHWKPFLVNVCMATLLATGAYLCYRVCFH
modifications: full-length
B12: Q99JR5 (protein, UniProt Q99JR5 1-466, looked up)
chain: MWGCWLGLLLLLLAGQAALEARRSRWRRELAPGLHLRGIRDAGGRYCQEQDMCCRGRADECALPYLGATCYCDLFCNRTVSDCCPDFWDFCLGIPPPFPPVQGCMHGGRIYPVFGTYWDNCNRCTCHEGGHWECDQEPCLVDPDMIKAINRGNYGWQAGNHSAFWGMTLDEGIRYRLGTIRPSSTVMNMNEIYTVLGQGEVLPTAFEASEKWPNLIHEPLDQGNCAGSWAFSTAAVASDRVSIHSLGHMTPILSPQNLLSCDTHHQQGCRGGRLDGAWWFLRRRGVVSDNCYPFSGREQNEASPTPRCMMHSRAMGRGKRQATSRCPNGQVDSNDIYQVTPAYRLGSDEKEIMKELMENGPVQALMEVHEDFFLYQRGIYSHTPVSQGRPEQYRRHGTHSVKITGWGEETLPDGRTIKYWTAANSWGPWWGERGHFRIVRGTNECDIETFVLGVWGRVGMEDMGHH
modifications: full-length

Assay: Proteomic analysis of native murine pancreata and decelled pancreatic ECM (Table 1)
Set-up: species or system mouse
Conditions: abundance of the listed protein in decelled pancreatic ECM

Compared with B1, B2 is lower in “Pancreatic ECM: Mean of log2(intensities)” value: 25.61 a.u for the first, 25.39 a.u for the second.

First: B3
Second: B4
The “Pancreatic ECM: Mean of log2(intensities)” value of the first is lower: 24.79 a.u for the first, 25.15 a.u for the second.

First: B5
Second: B6
The “Pancreatic ECM: Mean of log2(intensities)” value of the first is higher: 26.11 a.u for the first, 24.82 a.u for the second.

First: B7
Second: B8
The “Pancreatic ECM: Mean of log2(intensities)” value of the first is higher: 26.15 a.u for the first, 24.74 a.u for the second.

Going from B9 to B10, the “Pancreatic ECM: Mean of log2(intensities)” value rises from 25.11 a.u to 26.10 a.u.

Going from B11 to B12, the “Pancreatic ECM: Mean of log2(intensities)” value rises from 24.58 a.u to 27.48 a.u.

Same assay, conditions: abundance of the listed protein in native murine pancreas tissue

Compared with B1, B2 is lower in “Native pancreas tissue: Mean of log2(intensities)” value: 22.17 a.u for the first, 21.85 a.u for the second.

First: B3
Second: B4
The “Native pancreas tissue: Mean of log2(intensities)” value of the first is lower: 21.36 a.u for the first, 21.70 a.u for the second.

Going from B5 to B6, the “Native pancreas tissue: Mean of log2(intensities)” value rises from 21.21 a.u to 21.27 a.u.

Compared with B7, B8 is lower in “Native pancreas tissue: Mean of log2(intensities)” value: 22.68 a.u for the first, 21.23 a.u for the second.

First: B9
Second: B10
The “Native pancreas tissue: Mean of log2(intensities)” value of the first is lower: 21.62 a.u for the first, 22.62 a.u for the second.

Going from B11 to B12, the “Native pancreas tissue: Mean of log2(intensities)” value rises from 21.10 a.u to 22.50 a.u.
